Test results from article PMC3698205.
No constants are given. Whether binding was seen depends on the method and setting. Binding seen in cells or lysates may run through a third protein. Some results given as binding are weak or reduced against the parent protein; the word gives no strength.

By UniProt entry, the sequences of proteins in these tests, tags left out. Residues count along the entry.
UniProt Q9Y262: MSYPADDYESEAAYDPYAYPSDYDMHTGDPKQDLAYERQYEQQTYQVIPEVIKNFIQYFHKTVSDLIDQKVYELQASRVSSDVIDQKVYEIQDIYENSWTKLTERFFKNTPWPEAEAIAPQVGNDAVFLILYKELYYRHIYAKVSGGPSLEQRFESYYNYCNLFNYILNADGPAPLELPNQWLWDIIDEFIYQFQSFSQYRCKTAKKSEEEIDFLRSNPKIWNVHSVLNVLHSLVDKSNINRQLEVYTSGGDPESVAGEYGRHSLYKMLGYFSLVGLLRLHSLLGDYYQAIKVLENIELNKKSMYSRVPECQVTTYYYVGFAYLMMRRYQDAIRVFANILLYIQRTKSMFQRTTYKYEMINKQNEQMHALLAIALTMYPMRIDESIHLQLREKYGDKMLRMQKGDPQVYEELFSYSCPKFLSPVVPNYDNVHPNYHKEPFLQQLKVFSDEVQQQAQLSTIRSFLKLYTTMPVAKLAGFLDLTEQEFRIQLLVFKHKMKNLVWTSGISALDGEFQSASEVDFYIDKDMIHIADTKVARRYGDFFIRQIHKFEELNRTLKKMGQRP
UniProt P03314, residues 2507-3411: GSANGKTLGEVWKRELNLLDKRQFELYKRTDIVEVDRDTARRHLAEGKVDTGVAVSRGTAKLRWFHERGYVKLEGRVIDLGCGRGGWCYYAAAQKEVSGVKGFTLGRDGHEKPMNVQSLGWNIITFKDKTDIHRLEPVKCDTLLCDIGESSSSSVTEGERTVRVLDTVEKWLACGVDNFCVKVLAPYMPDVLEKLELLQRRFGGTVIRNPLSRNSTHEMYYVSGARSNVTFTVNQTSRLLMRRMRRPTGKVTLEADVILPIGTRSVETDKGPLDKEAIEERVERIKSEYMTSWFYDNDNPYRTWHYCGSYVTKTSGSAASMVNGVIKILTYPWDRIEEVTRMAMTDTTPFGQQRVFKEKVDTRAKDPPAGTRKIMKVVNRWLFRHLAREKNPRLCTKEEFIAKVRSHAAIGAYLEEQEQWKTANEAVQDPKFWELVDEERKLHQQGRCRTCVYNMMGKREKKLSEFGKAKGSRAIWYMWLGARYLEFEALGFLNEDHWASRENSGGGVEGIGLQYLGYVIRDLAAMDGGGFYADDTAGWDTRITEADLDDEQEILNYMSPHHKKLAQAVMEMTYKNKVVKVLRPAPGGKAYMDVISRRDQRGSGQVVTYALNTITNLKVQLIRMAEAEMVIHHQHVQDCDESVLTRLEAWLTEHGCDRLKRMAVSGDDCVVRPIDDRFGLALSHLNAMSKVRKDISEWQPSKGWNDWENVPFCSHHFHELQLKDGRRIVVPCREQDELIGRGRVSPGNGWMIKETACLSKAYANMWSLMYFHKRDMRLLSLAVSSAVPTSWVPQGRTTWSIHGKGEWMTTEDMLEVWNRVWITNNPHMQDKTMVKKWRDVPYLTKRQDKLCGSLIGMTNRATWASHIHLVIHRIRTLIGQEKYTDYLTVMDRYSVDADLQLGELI

Target: Flag-tagged eIF3L (pSGFlag-eIF3L) in Vero cells (human) (UniProt Q9Y262)
Assay: co-IP

YFV NS5 protein from infected cells (from UniProt P03314)
binding: binds
